Article PMC11389919
These are yes or no findings as the source states them, for the method shown. Binding calls can cover weak binding; strength is not graded here. Sequences can lack the tags named with a protein.

Legend:
[1] = biological target: T1, TCP17 fused to the GAL4 activation domain (pGADT7) (Arabidopsis) (UniProt Q9LEZ9); test: two-hybrid; yeast three-hybrid: AD-TCP17 (pGADT7) with BD-TCP17 and a third protein (NSs, γb, NS3, P19 or MBP control) from pBridge, the third protein expressed only without methionine; SD/-T-L-H-A and SD/-T-L-H-A-M plates, 30°C, 5 d
T1 sequence: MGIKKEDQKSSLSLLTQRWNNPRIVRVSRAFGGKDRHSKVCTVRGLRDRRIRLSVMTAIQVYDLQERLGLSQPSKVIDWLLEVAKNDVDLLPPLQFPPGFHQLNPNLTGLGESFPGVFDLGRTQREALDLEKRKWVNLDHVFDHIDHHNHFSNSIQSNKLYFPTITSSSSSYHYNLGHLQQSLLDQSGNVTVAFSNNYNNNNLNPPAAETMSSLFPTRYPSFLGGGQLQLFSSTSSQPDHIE

[2] = biological target: BSMV γb fused to the GAL4 binding domain (pGBKT7) (Barley stripe mosaic virus); test: two-hybrid; viral proteins fused to the GAL4 binding domain (pGBKT7, bait), TCP17 fused to the GAL4 activation domain (pGADT7, prey); co-transformed yeast on SD/-Trp-Leu-His-Ade, 30°C
[3] = biological target: RSV NS3 fused to the GAL4 binding domain (pGBKT7) (Rice stripe virus); test: as above

## BSMV γb expressed as the third protein from pBridge (pBridge-TCP17-γb) (Barley stripe mosaic virus)
[1]
  binding: binds

## RSV NS3 expressed as the third protein from pBridge (pBridge-TCP17-NS3) (Rice stripe virus)
[1]
  binding: binds

B1: TCP17 fused to the GAL4 activation domain (pGADT7) (protein, UniProt Q9LEZ9 1-242)
chain: T1 sequence
[2]
  binding: binds
[3]
  binding: binds
